Source: patent publication US20220315933A1, “SYSTEMS AND METHODS FOR SINGLE-STRAND BREAK SIGNALING AND REPAIR IN A CELL-FREE SYSTEM AND METHODS OF IDENTIFYING MODULATORS OF SINGLE-STRAND BREAK SIGNALING AND REPAIR” (University of North Carolina Charlotte, priority 2017, published 2022)
Entries after “also recorded” stand apart in the source; their conditions may differ. For at least one compound, name, drawing or mass did not settle the structure.

Assays:
ATR-Chk1 DDR pathway = test: Defined SSB plasmid-induced checkpoint signaling in Xenopus HSS system (immunoblotting); format: biochemical, Xenopus laevis; conditions: HSS with SSB plasmid 75 ng/μL, 30 min incubation, inhibitor added
Method: CTL or SSB plasmid was added to HSS at different concentrations as indicated, and incubated for 30 minutes. Extracts were examined via immunoblotting analysis for Chk1 phosphorylation (i.e., Chk1 P-Ser344) and total Chk1 (FIG. 8A). CTL or SSB plasmid was added to HSS at a final concentration of 75 ng/μL. After different time of incubation at room temperature, the extracts were examined via immunoblotting analysis (FIG. 8B). ATR inhibitor VE-822, ATM inhibitor KU55933, DNA-PK inhibitor NU7441, or recombinant geminin was added to HSS supplemented with CTL or SSB plasmid at a final concentration of […] for 30 minutes. Geminin or roscovitine was added to HSS supplemented with sperm chromatin and hydrogen peroxide. After a 45-min incubation, extracts were examined via immunoblotting analysis as indicated (FIG. 8F). CTL, SSB, or DSB plasmid was added to HSS at different concentrations as indicated. Samples were examined via immunoblotting analysis (FIG. 8G).
CTL or SSB plasmid was added to HSS with the presence or absence of VE-822. […] After 30-min incubation, samples were analyzed via immunoblotting analysis, as illustrated.
The care and use of Xenopus laevis was approved by the Institutional Animal Care and Use Committee (IACUC) of the University of North Carolina at Charlotte. […] ImageQuat software was used to quantify the DNA synthesis from HSS/NPE system. […]

APE2 Zf-GRF = target: T1, APE2 Zf-GRF (Xenopus laevis, UniProt Q6DDT4); test: ssDNA binding assay of GST-APE2-ZF with biotin-ssDNA (80 nt) on streptavidin dynabeads; conditions: interaction buffer
T1 construct: which corresponds to the aa 456-517; made in house; host or cells: E. coli DE3/BL21
T1 sequence (Q6DDT4 456-517): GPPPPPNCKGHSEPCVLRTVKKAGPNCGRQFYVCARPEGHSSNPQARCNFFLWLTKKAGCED

APE2 = target: T2, APE2 (Xenopus laevis, UniProt Q6DDT4); test: In vitro exonuclease assay: PCNA-mediated end resection of FAM-labeled gapped DNA structure by APE2; format: biochemical; conditions: purified APE2 and PCNA
T2 construct: GST (N); made in house; host or cells: E. coli DE3/BL21
T2 sequence (Q6DDT4 1-517): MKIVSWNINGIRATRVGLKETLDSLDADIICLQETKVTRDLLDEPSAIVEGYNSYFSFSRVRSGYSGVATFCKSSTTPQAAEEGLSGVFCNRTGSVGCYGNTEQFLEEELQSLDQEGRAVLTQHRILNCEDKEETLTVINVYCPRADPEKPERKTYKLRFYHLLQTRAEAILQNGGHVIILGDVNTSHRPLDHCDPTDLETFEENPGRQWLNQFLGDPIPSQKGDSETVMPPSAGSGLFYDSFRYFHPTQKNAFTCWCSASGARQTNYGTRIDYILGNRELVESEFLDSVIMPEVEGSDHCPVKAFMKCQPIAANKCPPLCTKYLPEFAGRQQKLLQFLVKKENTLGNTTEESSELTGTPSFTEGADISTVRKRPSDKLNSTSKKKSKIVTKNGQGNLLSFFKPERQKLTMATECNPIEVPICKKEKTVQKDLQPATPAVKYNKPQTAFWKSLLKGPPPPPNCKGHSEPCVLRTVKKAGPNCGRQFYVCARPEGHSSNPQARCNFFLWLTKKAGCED

What does the source list for `CC1=C(O)C(=O)C=C2C1=CC=C1[C@@]2(C)CC[C@@]2(C)[C@@H]3C[C@](C)(C(=O)O)CC[C@]3(C)CC[C@]12C` [Celastrol, 3-Hydroxy-9β, 13α-dimethyl-2-oxo-24,25,26-trinoroleana-1(10),3,5,7-tetraen-29-oic acid]?
SSB-induced Chk1 phosphorylation (Chk1 P-S344) (ATR-Chk1 DDR pathway): impaired; also recorded: inhibits; binding of APE2 Zf-GRF to ssDNA in vitro (APE2 Zf-GRF): inhibits; PCNA-mediated end resection of FAM-labeled gapped (3'-recessed) DNA structure (APE2): compromised
